Reference: PMC6197226
Results are given in words; binding and its absence hold for the method and conditions named. In cells and extracts the contact can be indirect. Some results given as binding are weak or reduced against the parent protein; the word gives no strength.

Tests used:
Assay in all cases: pull-down; C-terminally biotinylated peptides on streptavidin agarose; 70 ug HEK293 protein extract; binding buffer 0.05% Tween-20, 10% glycerol, 0.2 M KCl, 20 mM HEPES pH 7.9; 4 °C, 2 h; immunoblotting; only the target purified
[1] = molecular target: G-nsP4 peptide (X-…-biotin, X = Gly) (Sindbis virus)
[2] = molecular target: R-nsP4 peptide (X-…-biotin, X = Arg) (Sindbis virus)
[3] = molecular target: T1, arginylated BiP peptide (X-…-biotin, X = Arg-Glu)
T1 sequence (peptide, C-terminal biotin): REEEDKKEDVG

[4] = molecular target: T2, native BiP peptide (X-…-biotin, X = Glu)
T2 sequence (peptide, C-terminal biotin): EEEDKKEDVG

Substance: wild-type p62-Flag (full-length p62 expressed in HEK293 cells) (from UniProt Q13501 1-440)
- binding [1]: no binding
- binding [2]: binds
- binding [3]: binds
- binding [4]: no binding
